PubChem BioAssay AID743454 | Peter MacCallum Cancer Centre – 2014
Screen: 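Genes whose loss kills vorinostat-resistant colon cancer cells under vorinostat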 (primary screen). System: human HCT116-VR colon cancer cells, selected for vorinostat resistance. Reagents: siRNA pool against human genes, 40 nM siRNA pool. Timing: vorinostat for 24 h, read-out about 72 h after transfection. Conditions: vorinostat at 2.5 µM final. Measured: 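Two measures, CellTiter-Fluor viability and luminescent caspase 3/7 activity, each as fold change against same-plate mock wells, mean of duplicates, then screen-wide robust z-score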. Scale: viability robust z-score: higher = more viable cells than screen typical; caspase robust z-score: higher = more caspase 3/7 activity than screen typical. Hit rule: 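Hits are knock-downs in viability class RV1/RV2 or caspase class CA1/CA2, excluding ones that killed cells in the no-drug cell-count arm; hits then retested with single siRNAs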.
The deposit covers about 18,000 reagents; below is a random part of them. Over the whole deposit, 450 (2.5%) got an active call. 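Single biological run; no consistent viability z cut-off exists, so the class columns, not z-scores, define the calls.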

Silencing of MXD1 (MAX dimerization protein 1) gave: viability hit class no change; caspase hit class CA2 (caspase activation); viability robust z-score -2.08; caspase robust z-score 5.81; active. Against MGA (MAX dimerization protein MGA), the entry reads viability hit class RV2 (reduced viability); caspase hit class no change; viability robust z-score -3.12; caspase robust z-score -0.84; active. Against ENC1 (ectodermal-neural cortex 1), the entry reads viability hit class no change; caspase hit class no change; viability robust z-score -0.19; caspase robust z-score 0.3; inactive. With knock-down of ZNF804B (zinc finger protein 804B), the screen gave viability hit class no change; caspase hit class no change; viability robust z-score -0.38; caspase robust z-score -0.51; inactive. Against PDE6A (phosphodiesterase 6A), the values are viability hit class no change; caspase hit class no change; viability robust z-score -0.25; caspase robust z-score -0.88; inactive.

Part of the list above, showing only “caspase hit class”:
MXD1 (MAX dimerization protein 1)	CA2 (caspase activation)
MGA (MAX dimerization protein MGA)	no change

Additional results:
After knock-down of AHSA2P (activator of HSP90 ATPase homolog 2, pseudogene), the screen gave viability hit class no change; caspase hit class no change; viability robust z-score 0.58; caspase robust z-score 0.22; inactive. With knock-down of SIPA1L1 (signal induced proliferation associated 1 like 1), the screen gave viability hit class no change; caspase hit class no change; viability robust z-score -0.84; caspase robust z-score 1.19; inactive. GNA13 (G protein subunit alpha 13) showed viability hit class no change; caspase hit class no change; viability robust z-score 0.99; caspase robust z-score 0.82; inactive. Against TMEM60 (transmembrane protein 60), the values are viability hit class no change; caspase hit class no change; viability robust z-score 0.44; caspase robust z-score 0.98; inactive. RIN2 (Ras and Rab interactor 2) showed viability hit class no change; caspase hit class no change; viability robust z-score 0.46; caspase robust z-score -0.42; inactive. With knock-down of C1QB (complement C1q B chain), the screen gave viability hit class no change; caspase hit class no change; viability robust z-score -1.16; caspase robust z-score 0.11; inactive.

GUCY1A2 (guanylate cyclase 1 soluble subunit alpha 2) scored viability hit class no change; caspase hit class no change; viability robust z-score 0.78; caspase robust z-score 0.32; inactive. Knock-down of CACNB2 (calcium voltage-gated channel auxiliary subunit beta 2) resulted in: viability hit class no change; caspase hit class no change; viability robust z-score 0.44; caspase robust z-score 0.48; inactive. GSTM5 (glutathione S-transferase mu 5) scored viability hit class no change; caspase hit class no change; viability robust z-score -0.22; caspase robust z-score -0.61; inactive.
